From PMC4177916, “Characterization of the Sterol and Phosphatidylinositol 4-Phosphate Binding Properties of Golgi-Associated OSBP-Related Protein 9 (ORP9)” (PLoS ONE, 2014)

Tested on: T1, OSBP
T1 construct: His-tagged
Experiment: [3H]cholesterol competition, Talon resin
Format: binding
Conditions: pH 7.4, 20 °C, 300 mM KCl, Triton X-100, against 100 nM [3H]cholesterol

Row | Structure (SMILES) | % inhibition at 2 μM (not extracted from liposomes by OSBP) | % inhibition at 250-750 nM
1 | CC(C)CCC[C@@H](C)[C@H]1CC[C@H]2C3=CC=C4C[C@@H](O)CC[C@]4(C)C3=CC[C@]12C [CTL, cholestatrienol] | 50% | 
2 | CC(C)[C@@H](C)/C=C/[C@@H](C)[C@H]1CC[C@H]2C3=CC=C4C[C@@H](O)CC[C@]4(C)C3=CC[C@]12C [DHE, dehydroergosterol] |  | 10–15%
